Experimental findings from patent US11951171B2, “Polypeptide EXP and its drug delivery system as well as extracellular vesicle extraction” (TIANJIN MEDICAL UNIVERSITY, priority 2019, dated 2024) are described below.

In the data set the test system is exosomes in serum. As to the kind of experiment: Capture of serum exosomes with His-tagged peptide coated nickel beads. Particulars: Western blot (FIG. 6D). The source says:
(A) Nano sight was used to detect the particle size of exosomes in serum captured by CP05 and EXP. It's shown by the results that the particle size of exosomes captured by EXP was about 50 nm, whose homogeneity was higher than that of exosomes recovered by ultra separation. […] It's shown by the results that exosomes captured by EXP has typical bi-layer structure, and the size of exosomes captured by EXP was smaller than that of exosomes recovered by ultrafiltration.(D) Western blot was used to detect the marker protein capturing exosome.
Experimental example 6: Characterization and functional validation of exosome captured from serum by EXP. • (1) His-tagged EXP and CP05 (100 μg) were respectively mixed with […] beads in 200 μl binding solution at 4° C. for 1 h under rotation. • (2) 1 ml pre-centrifuged serum was added to His-EXP and His-CP05 coated nickel beads (centrifuged at 4400 g for 20 min, followed by 13000 g for 5 min), and then incubated at 4° C. for 30 min; • (3) The serum was discarded and the nonspecific binding was washed with the washing solution for 3 times, 10 min each time. • (4) […] was used to recover extracellular vesicles.
6.1 Measurement of the size of captured exosomes. • (1) […] of exosomes recovered from elution were diluted into 1 ml of PBS. • (2) Nanosight was used to detect the size distribution of captured exosomes. […]
On the technique in general: Immunoblotting shows a protein as a band on a membrane.

Take CRHKMWTVKSRL (EXP): the “marker proteins of captured exosome” value was “CD63, CD81 and HSC70”.
